{"source": "paper PMC9160049", "about": "“Cryo-EM structures of Gid12-bound GID E3 reveal steric blockade as a mechanism inhibiting substrate ubiquitylation” (Nature Communications, 2022)", "binders": {"B1": {"name": "Gid7 (protein, UniProt P25569 1-745)", "chain": "MSHTNKIAYVLNNDTEETASPSSVGCFDKKQLTKLLIHTLKELGYDSAANQLLLESGGYQNESNHIQTFFKLIKTGQFHLINWQIVCSLPLAHSSPLRSEWLQRLLIPTPTPATTSLFDHMLLQLQYLQQLMSSVNSSTCSDAEIATLRNYVEIMILVNRQIFLEFFHPVTNSASHKGPHTALPVLYLRKILKNFIEIWDSLLVSNDQFLNEENIFNPETTLRELSTYLTNPKLTAQLNLERDHLIDAISKYIDPNELVPKGRLLHLLKQAIKYQQSQDIFNIIDPDDDASFSSPPHRINLLQDNFSHDLTVTFQEWKTIQDTTDEIWFLTFSPNGKYLASATSESSRGYFITVYDVEQDFKIYKTCVSLSQSVLYLMFSPDSRYLVACPFSEDVTIYDMNATSLPDASATDSFLLYPSTRLSPMDSFKLDTTTYPDDTESSASSSSRPANANSNQSRVWCCDAFHTAERAGWMVVGSPDREAIVHSLTTKESLFSLKGRTCIALGHDENISGRKSIDPAKVLYKPTSSNGNWQYVEDDETFPRVHDVKISYDDKYVLLMTHQGVIDVYDFSGFPSKEELSKQTVDPKNFLIPRIARLDVGKNMTCISLPLNTTHQGFHRQQISESQHLVLVSLQDNELQMWDYKENILIQKYFGQKQQHFIIRSCFAYGNKLVMSGSEDGKIYIWDRIRGNLVSVLSGHSTVMSNSTKPMGKNCNVVASNPADKEMFASGGDDGKIKIWKISRN"}, "B2": {"name": "Gid5 (protein, UniProt P40547 1-921)", "chain": "MTVAYSLENLKKISNSLVGDQLAKVDYFLAPKCQIFQCLLSIEQSDGVELKNAKLDLLYTLLHLEPQQRDIVGTYYFDIVSAIYKSMSLASSFTKNNSSTNYKYIKLLNLCAGVYPNCGFPDLQYLQNGFIQLVNHKFLRSKCKIDEVVTIIELLKLFLLVDEKNCSDFNKSKFMEEEREVTETSHYQDFKMAESLEHIIVKISSKYLDQISLKYIVRLKVSRPASPSSVKNDPFDNKGVDCTRAIPKKINISNMYDSSLLSLALLLYLRYHYMIPGDRKLRNDATFKMFVLGLLKSNDVNIRCVALKFLLQPYFTEDKKWEDTRTLEKILPYLVKSFNYDPLPWWFDPFDMLDSLIVLYNEITPMNNPVLTTLAHTNVIFCILSRFAQCLSLPQHNEATLKTTTKFIKICASFAASDEKYRLLLLNDTLLLNHLEYGLESHITLIQDFISLKDEIKETTTESHSMCLPPIYDHDFVAAWLLLLKSFSRSVSALRTTLKRNKIAQLLLQILSKTYTLTKECYFAGQDFMKPEIMIMGITLGSICNFVVEFSNLQSFMLRNGIIDIIEKMLTDPLFNSKKAWDDNEDERRIALQGIPVHEVKANSLWVLRHLMYNCQNEEKFQLLAKIPMNLILDFINDPCWAVQAQCFQLLRNLTCNSRKIVNILLEKFKDVEYKIDPQTGNKISIGSTYLFEFLAKKMRLLNPLDTQQKKAMEGILYIIVNLAAVNENKKQLVIEQDEILNIMSEILVETTTDSSSNGNDSNLKLACLWVLNNLLWNSSVSHYTQYAIENGLEPGHSPSDSENPQSTVTIGYNESVAGGYSRGKYYDEPDGDDSSSNANDDEDDDNDEGDDEGDEFVRTPAAKGSTSNVQVTRATVERCRKLVEVGLYDLVRKNITDESLSVREKARTLLYHMDLLLKVK"}, "B3": {"name": "Gid2 (protein, UniProt Q12508 1-421)", "chain": "MSELLDSFETEFAKFYTDSNLEETNLQKCLDHTHEFKSQLKKLKAHLNKHIQESKPEVYNKLSDKEKQKFKRKRELIIEKLSKSQRQWDHSVKKQIKYVSQQSNRFNKSTLNKLKEFDIDSVYVNKLPKETMENVNEAIGYHILRYSIDNMPLGNKNEAFQYLKDVYGITNKESTEFIEMGQIVHDLKKGDTESCLKWCSNEMESLSSNHTALSSLKFDLYTLSAMQIVKHGNPVELYYQITQNAPLDCFRHREKELMQNVVPLLTKSLIGQPIEDIDSKVNKELKECTSLFIKEYCAAKHIFFDSPLFLIVLSGLISFQFFIKYKTIRELAHVDWTTKDELPFDVKLPDFLTHFHPIFICPVLKEETTTENPPYSLACHHIISKKALDRLSKNGTITFKCPYCPVNTSMSSTKKVRFVML"}, "B4": {"name": "Gid4 (protein, UniProt P38263 1-362)", "chain": "MINNPKVDSVAEKPKAVTSKQSEQAASPEPTPAPPVSRNQYPITFNLTSTAPFHLHDRHRYLQEQDLYKCASRDSLSSLQQLAHTPNGSTRKKYIVEDQSPYSSENPVIVTSSYNHTVCTNYLRPRMQFTGYQISGYKRYQVTVNLKTVDLPKKDCTSLSPHLSGFLSIRGLTNQHPEISTYFEAYAVNHKELGFLSSSWKDEPVLNEFKATDQTDLEHWINFPSFRQLFLMSQKNGLNSTDDNGTTNAAKKLPPQQLPTTPSADAGNISRIFSQEKQFDNYLNERFIFMKWKEKFLVPDALLMEGVDGASYDGFYYIVHDQVTGNIQGFYYHQDAEKFQQLELVPSLKNKVESSDCSFEFA"}, "B5": {"name": "Gid9 (protein, UniProt P40492 1-516)", "chain": "MAEKSIFNEPDVDFHLKLNQQLFHIPYELLSKRIKHTQAVINKETKSLHEHTAALNQIFEHNDVEHDELALAKITEMIRKVDHIERFLNTQIKSYCQILNRIKKRLEFFHELKDIKSQNSGTSHNGNNEGTRTKLIQWYQSYTNILIGDYLTRNNPIKYNSETKDHWNSGVVFLKQSQLDDLIDYDVLLEANRISTSLLHERNLLPLISWINENKKTLTKKSSILEFQARLQEYIELLKVDNYTDAIVCFQRFLLPFVKSNFTDLKLASGLLIFIKYCNDQKPTSSTSSGFDTEEIKSQSLPMKKDRIFQHFFHKSLPRITSKPAVNTTDYDKSSLINLQSGDFERYLNLLDDQRWSVLNDLFLSDFYSMYGISQNDPLLIYLSLGISSLKTRDCLHPSDDENGNQETETATTAEKEVEDLQLFTLHSLKRKNCPVCSETFKPITQALPFAHHIQSQLFENPILLPNGNVYDSKKLKKLAKTLKKQNLISLNPGQIMDPVDMKIFCESDSIKMYPT"}, "B6": {"name": "Gid1 (protein, UniProt P53076 1-958)", "chain": "MSEYMDDVDREFINCLFPSYLLQQPVAYDLWILYLQHRKLFHKLKNTNLINADENPTGVGMGRTKLTALTRKEIWSKLMNLGVLGTISFEAVNDDYLIQVYKYFYPDVNDFTLRFGVKDSNKNSVRVMKASSDMRKNAQELLEPVLSEREMALNSNTSLENDRNDDDDDDDDDDDDDDDDDDDDDESDLESLEGEVDTDTDDNNEGDGSDNHEEGGEEGSRGADADVSSAQQRAERVADPWIYQRSRSAINIETESRNLWDTSDKNSGLQYYPPDQSPSSSFSSPRVSSGNDKNDNEATNVLSNSGSKKKNSMIPDIYKILGYFLPSRWQAQPNNSLQLSQDGITHLQPNPDYHSYMTYERSSASSASTRNRLRTSFENSGKVDFAVTWANKSLPDNKLTIFYYEIKVLSVTSTESAENSNIVIGYKLVENELMEATTKKSVSRSSVAGSSSSLGGSNNMSSNRVPSTSFTMEGTQRRDYIYEGGVSAMSLNVDGSINKCQKYGFDLNVFGYCGFDGLITNSTEQSKEYAKPFGRDDVIGCGINFIDGSIFFTKNGIHLGNAFTDLNDLEFVPYVALRPGNSIKTNFGLNEDFVFDIIGYQDKWKSLAYEHICRGRQMDVSIEEFDSDESEEDETENGPEENKSTNVNEDLMDIDQEDGAAGNKDTKKLNDEKDNNLKFLLGEDNRFIDGKLVRPDVNNINNLSVDDGSLPNTLNVMINDYLIHEGLVDVAKGFLKDLQKDAVNVNGQHSESKDVIRHNERQIMKEERMVKIRQELRYLINKGQISKCINYIDNEIPDLLKNNLELVFELKLANYLVMIKKSSSKDDDEIENLILKGQELSNEFIYDTKIPQSLRDRFSGQLSNVSALLAYSNPLVEAPKEISGYLSDEYLQERLFQVSNNTILTFLHKDSECALENVISNTRAMLSTLLEYNAFGSTNSSDPRYYKAINFDEDVLNL"}}, "key": {"[1]": {"target": "T1, Gid12-3×FLAG (endogenously C-terminally triple FLAG-tagged Ipf1) (S. cerevisiae (endogenous in BY4741)) (UniProt Q12027)", "T1 sequence": "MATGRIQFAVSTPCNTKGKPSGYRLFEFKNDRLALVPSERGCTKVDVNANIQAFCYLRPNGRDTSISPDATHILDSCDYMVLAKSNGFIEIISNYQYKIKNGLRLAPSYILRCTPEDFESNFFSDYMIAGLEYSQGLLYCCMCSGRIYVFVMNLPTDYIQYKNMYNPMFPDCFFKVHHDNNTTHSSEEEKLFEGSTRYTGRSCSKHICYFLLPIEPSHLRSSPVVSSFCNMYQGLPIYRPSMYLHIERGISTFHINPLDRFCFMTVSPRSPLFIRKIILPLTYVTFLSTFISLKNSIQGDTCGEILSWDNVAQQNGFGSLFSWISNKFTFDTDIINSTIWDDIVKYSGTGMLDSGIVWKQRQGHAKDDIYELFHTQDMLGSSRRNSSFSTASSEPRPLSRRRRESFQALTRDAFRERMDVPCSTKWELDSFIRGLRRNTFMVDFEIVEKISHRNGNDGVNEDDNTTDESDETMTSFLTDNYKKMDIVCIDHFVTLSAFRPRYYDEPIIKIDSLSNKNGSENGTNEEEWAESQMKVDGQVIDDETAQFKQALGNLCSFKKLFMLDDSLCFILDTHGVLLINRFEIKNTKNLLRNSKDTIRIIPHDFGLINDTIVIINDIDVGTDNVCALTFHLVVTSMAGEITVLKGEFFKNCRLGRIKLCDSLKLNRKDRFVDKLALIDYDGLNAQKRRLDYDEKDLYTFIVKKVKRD", "assay": "affinity purification with mass spectrometry; Gid12-3×FLAG on anti-FLAG M2 resin from BY4741 lysate, glycolytic conditions, against an untagged control strain; 200 mM NaCl, 50 mM Tris pH 7.5, 4 °C; label-free quantitative MS"}, "[2]": {"target": "T2, 3×HA-Gid4 (endogenously N-terminally HA-tagged Gid4) (S. cerevisiae (endogenous in BY4741)) (UniProt P38263)", "T2 sequence": "B4 chain", "assay": "affinity purification with mass spectrometry; 3×HA-Gid4 on anti-HA resin, eluted with HA peptide, from BY4741 GID12-9×cMYC lysate; glycolytic conditions, ethanol starvation for 16 h or carbon recovery; iBAQ quantification"}}, "note": "No constants are given. Whether binding was seen depends on the method and setting. Binding seen in cells or lysates may run through a third protein. Here binding means that the protein was enriched with, or labelled near, the bait; the list need not be complete. Sequences can lack the tags named with a protein.", "data": [{"binder": "B1", "values": [{"measurement": "binding", "setting": "[1]", "result": "binds"}]}, {"binder": "B2", "values": [{"measurement": "binding", "setting": "[1]", "result": "binds"}]}, {"binder": "B3", "values": [{"measurement": "binding", "setting": "[1]", "result": "binds"}, {"measurement": "binding", "setting": "[2]", "result": "binds"}]}, {"binder": "B4", "values": [{"measurement": "binding", "setting": "[1]", "result": "binds"}]}, {"binder": "B5", "values": [{"measurement": "binding", "setting": "[1]", "result": "binds"}]}, {"binder": "B6", "values": [{"measurement": "binding", "setting": "[1]", "result": "binds"}]}]}
